Measured values taken from PubChem BioAssay AID1381 (University of Pittsburgh Molecular Library Screening Center, 2008).
The list shows a part of the results.

Test: inhibitors of GR-EGFP nuclear translocation, primary screen, dynein cargo transport inhibitor project, imaging, high-content, 3617.4 mouse cells (AID 1381)
Details: stimulated with dexamethasone, 1 µM
[1] = measured here: cell count per field, at 20 µM
[2] = measured here: cytoplasmic GR-EGFP intensity, at 20 µM, stronger effect = higher value
[3] = measured here: nuclear GR-EGFP intensity, at 20 µM, stronger effect = lower value

O=[N+]([O-])c1ccc(OP2(=O)COCCO2)cc1 (stereo unspecified)
z-score [1]: 0.658 | z-score [2]: -0.292 | z-score [3]: -0.37

CC(=O)NC(SC(=S)N(C)C)C(Cl)(Cl)Cl (stereo unspecified)
z-score [1]: -0.506 | z-score [2]: -0.113 | z-score [3]: 1.35

O=[N+]([O-])c1ncn(CCn2cnc([N+](=O)[O-])n2)n1
z-score [1]: -0.607 | z-score [2]: -0.246 | z-score [3]: 0.489

O=C(OC1CN2CCC1CC2)c1cccc(Cl)c1 (stereo unspecified)
z-score [1]: -0.0215 | z-score [2]: 0.0121 | z-score [3]: 0.23

Nc1ccc([As](=O)(O)c2ccc([N+](=O)[O-])cc2)cc1
z-score [1]: -0.221 | z-score [2]: -0.211 | z-score [3]: -0.156

C(Cc1nn[nH]n1)Cc1nn[nH]n1
z-score [1]: 1.17 | z-score [2]: -0.202 | z-score [3]: -0.786

O=P(Nc1ccccn1)(c1ccc(Br)cc1)c1ccc(Br)cc1
z-score [1]: 0.664 | z-score [2]: -0.208 | z-score [3]: 0.333

COc1ccc(OP(C)(=O)Nc2cccc(Br)c2)cc1 (stereo unspecified)
z-score [1]: 0.589 | z-score [2]: -0.222 | z-score [3]: 0.589

COc1ccc(NP(C)(=O)Oc2ccccc2OC)cc1 (stereo unspecified)
z-score [1]: 0.332 | z-score [2]: -0.265 | z-score [3]: -0.349

O=P(Nc1nc2ccccc2s1)(c1ccccc1)c1ccccc1
z-score [1]: 0.398 | z-score [2]: -0.135 | z-score [3]: 0.0443

CN(C)CCOC(=O)C(O)(c1ccccc1)C1CCCCC1 (stereo unspecified)
z-score (measured here: cell count per field, at 50 µM): 0.247 | z-score (measured here: cytoplasmic GR-EGFP intensity, at 50 µM, stronger effect = higher value): -0.221 | z-score (measured here: nuclear GR-EGFP intensity, at 50 µM, stronger effect = lower value): -0.662

C[C@H]1OP(=O)(Oc2ccccc2)[C@H](O)[C@H](O)[C@H]1N=[N+]=[N-] (stereo partly specified)
z-score [1]: 0.483 | z-score [2]: -0.716 | z-score [3]: -0.0621
